Assay: general procedure: Fmoc solid-phase peptide synthesis; Wang resin (polystyrene/1% divinylbenzene), 0.50 mmol/g; dicyclohexylcarbodiimide / N-hydroxybenzotriazol
Details: whole synthesis
[1] = RP-HPLC, scale of the general procedure 5 g of Wang resin

H-SRRFAQALPVWARPD-OH
crude HPLC purity [1]: 31% | final HPLC purity [1]: 95.2% | crude mass (scale 5 g Wang resin): 2.4 g
